This is an account of results in publication doi:10.1101/2025.01.05.631347.

Chains of the proteins cited; added tags and fusions are not shown.
UniProt P22561: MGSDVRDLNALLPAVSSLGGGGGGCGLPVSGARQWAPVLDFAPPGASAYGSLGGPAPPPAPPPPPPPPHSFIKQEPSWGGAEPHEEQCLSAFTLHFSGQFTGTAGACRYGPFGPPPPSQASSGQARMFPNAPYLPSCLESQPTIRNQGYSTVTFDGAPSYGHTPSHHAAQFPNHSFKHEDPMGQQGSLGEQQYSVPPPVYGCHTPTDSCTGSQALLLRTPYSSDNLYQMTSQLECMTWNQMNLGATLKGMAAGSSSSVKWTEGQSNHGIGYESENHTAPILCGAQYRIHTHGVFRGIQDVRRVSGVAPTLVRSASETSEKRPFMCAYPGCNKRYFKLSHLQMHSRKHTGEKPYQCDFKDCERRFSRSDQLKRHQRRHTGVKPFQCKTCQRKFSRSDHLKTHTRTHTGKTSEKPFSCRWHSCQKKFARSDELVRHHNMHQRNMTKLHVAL
UniProt Q8CJG0: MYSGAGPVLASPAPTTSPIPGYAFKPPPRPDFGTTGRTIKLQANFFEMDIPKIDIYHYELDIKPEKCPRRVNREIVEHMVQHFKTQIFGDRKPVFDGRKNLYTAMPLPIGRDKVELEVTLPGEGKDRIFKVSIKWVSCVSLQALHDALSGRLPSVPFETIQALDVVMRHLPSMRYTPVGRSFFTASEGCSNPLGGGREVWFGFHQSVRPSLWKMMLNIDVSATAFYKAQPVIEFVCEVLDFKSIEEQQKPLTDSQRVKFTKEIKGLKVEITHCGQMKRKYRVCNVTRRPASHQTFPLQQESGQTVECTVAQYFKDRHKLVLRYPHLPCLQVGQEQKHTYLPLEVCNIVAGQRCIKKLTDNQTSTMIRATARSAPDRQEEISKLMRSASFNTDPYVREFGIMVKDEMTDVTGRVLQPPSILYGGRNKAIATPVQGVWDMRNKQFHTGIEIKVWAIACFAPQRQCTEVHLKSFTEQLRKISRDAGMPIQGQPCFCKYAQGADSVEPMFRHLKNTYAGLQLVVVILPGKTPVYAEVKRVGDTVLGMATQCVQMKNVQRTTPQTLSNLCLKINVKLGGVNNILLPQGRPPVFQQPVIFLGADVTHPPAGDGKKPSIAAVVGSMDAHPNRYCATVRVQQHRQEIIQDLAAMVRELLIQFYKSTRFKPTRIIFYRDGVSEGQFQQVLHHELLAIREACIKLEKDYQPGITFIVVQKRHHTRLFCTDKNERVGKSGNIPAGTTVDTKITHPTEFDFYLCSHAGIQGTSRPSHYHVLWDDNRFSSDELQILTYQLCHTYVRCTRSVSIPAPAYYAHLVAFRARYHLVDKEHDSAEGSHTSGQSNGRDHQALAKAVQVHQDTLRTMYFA

This experiment deals with Wilms Tumour 1 (WT1) protein (mouse (endogenous in M15)) (UniProt P22561). Kind of experiment: co-IP.

No constants are given. Whether binding was seen depends on the method and setting. Binding seen in cells or lysates may run through a third protein. Some binding calls cover weakened binding; strength is not graded here.

For the substance AGO2 (from UniProt Q8CJG0 1-860), the binding entry is recorded as “binds”.
